Test results from paper doi:10.1101/2020.01.30.925537.
Results are given in words; binding and its absence hold for the method and conditions named. Binding seen in cells or lysates may run through a third protein. For some assays here: Binding can be weak; no strength is given.

Legend:
[1] = target: Csmd2-15x NPxY mutant (FENPMY mutated to FEAAAA) (mouse); experiment: co-IP
[2] = target: Csmd2-15x wild-type (3xFLAG-tagged truncated Csmd2) (mouse); experiment: co-IP

B1: Dab1 (protein, UniProt P97318 1-588)
chain: MSTETELQVAVKTSAKKDSRKKGQDRSEATLIKRFKGEGVRYKAKLIGIDEVSAARGDKLCQDSMMKLKGVVAGARSKGEHKQKIFLTISFGGIKIFDEKTGALQHHHAVHEISYIAKDITDHRAFGYVCGKEGNHRFVAIKTAQAAEPVILDLRDLFQLIYELKQREELEKKAQKDKQCEQAVYQTILEEDVEDPVYQYIVFEAGHEPIRDPETEENIYQVPTSQKKEGVYDVPKSQPNSQPLEDFESRFAAATPNRNLSMDFDELLEATKVSAVTQLELFGDMSTPPDITSPPTPATPGDAFLPSSSQTLPGSADVFGSMSFGTAAVPSGYVAMGAVLPSFWGQQPLVQQQIAMGAQPPVAQVIPGAQPIAWGQPGLFPATQQAWPTVAGQFPPAAFMPTQTVMPLAAAMFQGPLTPLATVPGTNDSARSSPQSDKPRQKMGKESFKDFQMVQPPPVPSRKPDQPSLTCTSEAFSSYFNKVGVAQDTDDCDDFDISQLNLTPVTSTTPSTNSPPTPAPRQSSPSKSSASHVSDPTADDIFEEGFESPSKSEEQEAPDGSQASSTSDPFGEPSGEPSGDNISPQDGS
In the case of B1, the binding [1] is reported as “no binding” and the binding [2] is reported as “binds”.
